Drawing on the supplement of paper PMC10849652, this text covers log2 fold change for 24 targets.

Chains of the proteins cited; added tags and fusions are not shown. Lines headed by an entry give the natural chain unless they say otherwise; changes in a name come on top.
UniProt Q96KC8: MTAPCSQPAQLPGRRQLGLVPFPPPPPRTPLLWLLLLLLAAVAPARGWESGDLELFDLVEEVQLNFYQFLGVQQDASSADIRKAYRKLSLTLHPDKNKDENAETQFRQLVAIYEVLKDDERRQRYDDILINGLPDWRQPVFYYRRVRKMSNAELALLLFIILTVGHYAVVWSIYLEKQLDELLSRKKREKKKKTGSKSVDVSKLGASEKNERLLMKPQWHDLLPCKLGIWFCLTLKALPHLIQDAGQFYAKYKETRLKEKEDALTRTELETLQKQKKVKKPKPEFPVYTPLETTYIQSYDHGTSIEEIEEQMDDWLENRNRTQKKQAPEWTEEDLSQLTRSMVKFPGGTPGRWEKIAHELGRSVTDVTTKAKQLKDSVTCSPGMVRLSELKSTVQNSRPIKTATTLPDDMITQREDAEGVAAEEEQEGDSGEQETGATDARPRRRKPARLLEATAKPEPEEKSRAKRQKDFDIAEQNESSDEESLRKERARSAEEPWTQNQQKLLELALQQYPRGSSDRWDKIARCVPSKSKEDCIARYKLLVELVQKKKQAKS
UniProt O77932: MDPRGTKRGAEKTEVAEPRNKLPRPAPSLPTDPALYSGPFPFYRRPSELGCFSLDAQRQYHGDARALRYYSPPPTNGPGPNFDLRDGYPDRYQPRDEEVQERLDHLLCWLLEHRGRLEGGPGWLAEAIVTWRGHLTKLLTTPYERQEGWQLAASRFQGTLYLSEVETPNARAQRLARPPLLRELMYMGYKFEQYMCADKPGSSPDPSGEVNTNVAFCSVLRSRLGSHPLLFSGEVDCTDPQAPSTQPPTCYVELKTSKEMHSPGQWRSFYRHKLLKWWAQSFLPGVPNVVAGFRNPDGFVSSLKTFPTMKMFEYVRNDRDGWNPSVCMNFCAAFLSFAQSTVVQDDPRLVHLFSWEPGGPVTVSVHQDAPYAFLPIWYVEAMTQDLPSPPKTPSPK
UniProt P25685, whole entry, looked up: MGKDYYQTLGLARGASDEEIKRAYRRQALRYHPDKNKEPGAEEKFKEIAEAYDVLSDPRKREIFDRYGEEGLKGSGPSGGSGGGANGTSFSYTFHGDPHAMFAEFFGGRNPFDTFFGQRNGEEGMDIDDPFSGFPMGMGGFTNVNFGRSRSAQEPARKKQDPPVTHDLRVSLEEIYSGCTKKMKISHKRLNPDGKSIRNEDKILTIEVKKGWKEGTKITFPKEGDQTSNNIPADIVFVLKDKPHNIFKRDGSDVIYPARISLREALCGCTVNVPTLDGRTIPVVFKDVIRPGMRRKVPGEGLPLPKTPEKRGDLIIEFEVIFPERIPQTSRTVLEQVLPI
UniProt Q6XUX3: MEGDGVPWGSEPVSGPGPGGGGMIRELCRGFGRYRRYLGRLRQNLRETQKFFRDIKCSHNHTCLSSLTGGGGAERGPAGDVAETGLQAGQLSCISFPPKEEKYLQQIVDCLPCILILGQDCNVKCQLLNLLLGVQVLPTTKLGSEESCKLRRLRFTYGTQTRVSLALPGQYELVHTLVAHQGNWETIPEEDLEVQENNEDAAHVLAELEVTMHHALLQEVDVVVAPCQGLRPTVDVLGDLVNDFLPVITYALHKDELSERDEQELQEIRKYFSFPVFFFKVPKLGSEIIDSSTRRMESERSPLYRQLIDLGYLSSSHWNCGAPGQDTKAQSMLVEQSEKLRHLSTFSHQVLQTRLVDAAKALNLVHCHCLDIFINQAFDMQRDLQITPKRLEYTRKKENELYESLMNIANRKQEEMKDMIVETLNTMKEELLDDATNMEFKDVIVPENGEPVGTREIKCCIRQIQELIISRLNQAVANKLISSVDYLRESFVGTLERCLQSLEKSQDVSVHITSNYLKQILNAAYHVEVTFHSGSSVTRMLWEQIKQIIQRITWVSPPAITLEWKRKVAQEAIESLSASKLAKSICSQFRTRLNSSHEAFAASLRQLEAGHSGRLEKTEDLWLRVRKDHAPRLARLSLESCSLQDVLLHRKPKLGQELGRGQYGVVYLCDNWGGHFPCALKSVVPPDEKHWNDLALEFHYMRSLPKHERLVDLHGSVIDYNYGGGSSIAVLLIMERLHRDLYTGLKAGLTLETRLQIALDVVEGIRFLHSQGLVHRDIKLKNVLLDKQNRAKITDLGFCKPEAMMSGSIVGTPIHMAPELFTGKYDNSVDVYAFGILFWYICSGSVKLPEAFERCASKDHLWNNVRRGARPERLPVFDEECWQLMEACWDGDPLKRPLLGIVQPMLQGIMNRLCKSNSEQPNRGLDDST
UniProt Q5VYK3, whole entry, looked up: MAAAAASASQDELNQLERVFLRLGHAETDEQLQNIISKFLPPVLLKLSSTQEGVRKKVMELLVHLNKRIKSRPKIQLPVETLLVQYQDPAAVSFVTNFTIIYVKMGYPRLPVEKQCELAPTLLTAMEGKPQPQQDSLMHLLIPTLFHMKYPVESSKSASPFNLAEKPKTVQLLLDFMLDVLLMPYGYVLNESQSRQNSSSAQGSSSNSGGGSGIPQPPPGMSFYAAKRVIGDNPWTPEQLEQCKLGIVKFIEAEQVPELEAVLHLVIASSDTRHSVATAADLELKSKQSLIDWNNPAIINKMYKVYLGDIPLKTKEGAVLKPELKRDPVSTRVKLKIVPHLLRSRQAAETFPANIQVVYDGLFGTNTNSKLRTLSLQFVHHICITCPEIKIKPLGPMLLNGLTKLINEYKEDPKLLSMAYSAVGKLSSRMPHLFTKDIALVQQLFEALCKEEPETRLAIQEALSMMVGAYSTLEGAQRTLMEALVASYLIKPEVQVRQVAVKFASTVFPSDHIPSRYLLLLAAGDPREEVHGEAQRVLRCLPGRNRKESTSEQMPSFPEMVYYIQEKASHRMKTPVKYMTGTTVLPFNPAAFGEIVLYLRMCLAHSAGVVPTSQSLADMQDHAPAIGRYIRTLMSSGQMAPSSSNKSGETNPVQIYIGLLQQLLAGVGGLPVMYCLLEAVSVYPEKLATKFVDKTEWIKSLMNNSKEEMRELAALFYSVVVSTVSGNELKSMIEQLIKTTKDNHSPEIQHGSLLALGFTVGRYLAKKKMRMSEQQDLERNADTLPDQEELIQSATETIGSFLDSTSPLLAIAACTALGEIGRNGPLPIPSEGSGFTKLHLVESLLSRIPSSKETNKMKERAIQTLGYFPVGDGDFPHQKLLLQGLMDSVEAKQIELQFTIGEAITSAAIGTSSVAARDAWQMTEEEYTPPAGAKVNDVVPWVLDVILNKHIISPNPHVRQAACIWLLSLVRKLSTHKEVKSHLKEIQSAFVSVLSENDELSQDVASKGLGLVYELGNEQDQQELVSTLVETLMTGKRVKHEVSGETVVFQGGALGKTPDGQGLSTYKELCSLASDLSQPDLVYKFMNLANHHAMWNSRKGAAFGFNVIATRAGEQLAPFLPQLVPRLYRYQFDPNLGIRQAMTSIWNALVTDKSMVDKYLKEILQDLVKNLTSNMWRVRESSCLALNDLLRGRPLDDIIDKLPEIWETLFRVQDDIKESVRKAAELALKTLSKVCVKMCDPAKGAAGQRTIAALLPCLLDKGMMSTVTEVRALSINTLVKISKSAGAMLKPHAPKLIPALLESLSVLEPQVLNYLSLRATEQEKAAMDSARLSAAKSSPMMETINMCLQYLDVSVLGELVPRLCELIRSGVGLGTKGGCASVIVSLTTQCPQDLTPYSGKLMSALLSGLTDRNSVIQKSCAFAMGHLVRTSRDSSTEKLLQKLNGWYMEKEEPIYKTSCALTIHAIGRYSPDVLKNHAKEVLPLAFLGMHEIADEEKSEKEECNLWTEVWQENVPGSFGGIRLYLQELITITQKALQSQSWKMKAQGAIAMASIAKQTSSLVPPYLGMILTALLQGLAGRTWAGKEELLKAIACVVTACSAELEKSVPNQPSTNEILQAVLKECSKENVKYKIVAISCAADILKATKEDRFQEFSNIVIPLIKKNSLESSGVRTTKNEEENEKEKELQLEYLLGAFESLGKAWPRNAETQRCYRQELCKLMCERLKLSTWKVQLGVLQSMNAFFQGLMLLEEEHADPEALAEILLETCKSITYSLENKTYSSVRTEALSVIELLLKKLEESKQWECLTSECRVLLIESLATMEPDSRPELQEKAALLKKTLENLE
UniProt P23919: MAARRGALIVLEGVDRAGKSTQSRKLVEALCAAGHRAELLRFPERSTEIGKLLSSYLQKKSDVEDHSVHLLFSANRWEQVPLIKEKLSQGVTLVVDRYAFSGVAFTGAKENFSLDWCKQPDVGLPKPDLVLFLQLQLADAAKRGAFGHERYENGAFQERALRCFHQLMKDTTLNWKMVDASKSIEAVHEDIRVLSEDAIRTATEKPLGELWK
UniProt Q96G46: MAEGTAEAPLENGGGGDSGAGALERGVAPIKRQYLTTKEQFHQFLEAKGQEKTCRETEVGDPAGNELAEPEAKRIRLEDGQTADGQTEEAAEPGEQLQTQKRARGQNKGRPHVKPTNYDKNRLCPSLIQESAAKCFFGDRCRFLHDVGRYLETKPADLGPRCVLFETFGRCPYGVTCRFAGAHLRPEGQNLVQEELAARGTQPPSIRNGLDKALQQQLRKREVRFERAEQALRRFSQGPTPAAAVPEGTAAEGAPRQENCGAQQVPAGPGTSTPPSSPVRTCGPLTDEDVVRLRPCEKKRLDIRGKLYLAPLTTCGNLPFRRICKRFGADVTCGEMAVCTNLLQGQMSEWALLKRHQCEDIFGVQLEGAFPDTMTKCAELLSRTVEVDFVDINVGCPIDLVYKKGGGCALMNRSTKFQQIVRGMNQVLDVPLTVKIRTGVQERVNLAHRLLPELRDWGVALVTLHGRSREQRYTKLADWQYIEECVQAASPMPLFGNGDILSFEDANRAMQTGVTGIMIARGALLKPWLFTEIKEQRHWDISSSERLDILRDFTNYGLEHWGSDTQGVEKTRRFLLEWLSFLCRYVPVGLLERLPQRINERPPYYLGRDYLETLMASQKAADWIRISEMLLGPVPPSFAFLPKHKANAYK
UniProt Q13409, whole entry, looked up: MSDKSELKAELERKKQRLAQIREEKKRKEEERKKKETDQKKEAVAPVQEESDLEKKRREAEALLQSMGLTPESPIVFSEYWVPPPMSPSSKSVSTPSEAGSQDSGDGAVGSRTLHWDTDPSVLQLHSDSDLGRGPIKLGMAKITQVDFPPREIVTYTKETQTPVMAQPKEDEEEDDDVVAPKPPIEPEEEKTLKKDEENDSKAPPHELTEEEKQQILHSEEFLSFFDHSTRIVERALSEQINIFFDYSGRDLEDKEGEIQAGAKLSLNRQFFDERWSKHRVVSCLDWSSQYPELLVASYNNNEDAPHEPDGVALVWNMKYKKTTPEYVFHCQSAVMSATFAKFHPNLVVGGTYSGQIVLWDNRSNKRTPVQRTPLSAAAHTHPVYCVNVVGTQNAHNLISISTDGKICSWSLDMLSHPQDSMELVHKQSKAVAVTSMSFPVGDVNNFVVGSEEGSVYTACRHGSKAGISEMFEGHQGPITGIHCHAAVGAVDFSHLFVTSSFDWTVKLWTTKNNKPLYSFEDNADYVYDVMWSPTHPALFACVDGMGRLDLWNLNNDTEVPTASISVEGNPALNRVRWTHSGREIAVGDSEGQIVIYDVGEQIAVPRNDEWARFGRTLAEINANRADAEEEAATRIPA
UniProt Q9H2P9: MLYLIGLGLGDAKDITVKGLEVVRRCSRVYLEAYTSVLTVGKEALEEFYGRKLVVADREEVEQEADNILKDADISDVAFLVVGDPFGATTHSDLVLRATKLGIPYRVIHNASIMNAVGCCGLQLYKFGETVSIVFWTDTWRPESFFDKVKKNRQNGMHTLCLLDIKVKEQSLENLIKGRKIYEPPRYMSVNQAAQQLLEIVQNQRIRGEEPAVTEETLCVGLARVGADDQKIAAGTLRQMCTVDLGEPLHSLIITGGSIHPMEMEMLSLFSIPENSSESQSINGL
UniProt Q9H3Z4: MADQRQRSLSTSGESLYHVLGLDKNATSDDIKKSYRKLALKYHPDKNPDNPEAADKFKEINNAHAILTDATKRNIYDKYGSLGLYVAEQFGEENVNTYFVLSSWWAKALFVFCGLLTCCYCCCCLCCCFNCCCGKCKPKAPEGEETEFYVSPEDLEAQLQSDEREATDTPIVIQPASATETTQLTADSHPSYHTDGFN
UniProt Q99848: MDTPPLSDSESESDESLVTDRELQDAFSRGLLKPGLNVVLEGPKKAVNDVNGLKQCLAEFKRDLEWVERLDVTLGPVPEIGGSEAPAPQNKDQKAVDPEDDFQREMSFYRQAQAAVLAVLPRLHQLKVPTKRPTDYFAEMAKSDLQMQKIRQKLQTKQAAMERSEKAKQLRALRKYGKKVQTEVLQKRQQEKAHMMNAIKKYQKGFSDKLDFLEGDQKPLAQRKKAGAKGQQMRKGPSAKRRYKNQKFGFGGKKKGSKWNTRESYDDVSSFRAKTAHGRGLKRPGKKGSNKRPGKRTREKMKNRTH
UniProt Q6P3W2: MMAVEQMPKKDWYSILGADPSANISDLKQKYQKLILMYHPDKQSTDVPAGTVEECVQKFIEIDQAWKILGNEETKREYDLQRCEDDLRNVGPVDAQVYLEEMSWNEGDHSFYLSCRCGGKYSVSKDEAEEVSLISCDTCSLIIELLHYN

This is one part of the list.

Compound in this test: COC(=O)N[C@@H](C)CNc1nccc(-c2cn(C(C)C)nc2-c2cc(Cl)cc(NS(C)(=O)=O)c2F)n1 [encorafenib]
The experiment in a line: log2 fold change, soluble protein after heating vs DMSO (PISA); higher = thermal stabilisation; K562 cells, 10 uM, 30 min; active = over 0.2 and 3.5 SD of the protein, either way, in both replicates (recomputed). An outline of the steps:
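Soluble protein was defined as the supernatant after 21,000xg for 90 min. It came from K562 cells at 2×10^6 cells/mL given 10 μM compound for 30 min, heated in aliquots for 3 min across 48°C-58°C, pooled, and extracted in PBS with 0.5% NP-40 at 4°C, and was quantified by TMTpro 16plex LC-MS/MS with equalised channel sums. Thermal stability against control samples, from duplicates, is reported as log2 fold change.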
For DNAJC1 (UniProt Q96KC8), the log2 fold change was inactive: 0.003.
On to DXO (UniProt O77932), for which the log2 fold change is inactive: 0.25.
As for DNAJB1 (UniProt P25685), the log2 fold change is inactive: -0.009.
DNAJB2 (UniProt P25686): the log2 fold change was inactive: 0.112.
The same measure for DSTYK (UniProt Q6XUX3): inactive: -0.075.
The same measure for EARS2 isoform 2 (UniProt Q5JPH6): inactive: -0.092.
For ECPAS (UniProt Q5VYK3), the log2 fold change was inactive: 0.122.
For DYNC1LI2 (UniProt O43237) the value was inactive: 0.212.
For DNM2 isoform 4 (UniProt P50570) the value was inactive: 0.107; for DOCK8 (UniProt Q8NF50), inactive: -0.079; for DTYMK (UniProt P23919), inactive: 0.005.
For DOK1 (UniProt Q99704) the value was inactive: -0.043; for EDRF1 (UniProt Q3B7T1), inactive: 0.058; for DUS3L (UniProt Q96G46), inactive: 0.016.
With DNM2 (UniProt P50570), the log2 fold change was inactive: 0.009.
For DYRK1A isoform 2 (UniProt Q13627) the value was inactive: 0.014; for DYNC1I2 isoform 5 (UniProt Q13409), inactive: -0.014; for DTNBP1 (UniProt Q96EV8), inactive: 0.014.
The same measure for DNAJB14 (UniProt Q8TBM8): inactive: -0.093.
For EEA1 (UniProt Q15075) the value was inactive: -0.047; for DPH5 isoform 5 (UniProt Q9H2P9), inactive: 0.025; for DNAJC5 (UniProt Q9H3Z4), inactive: -0.022.
Take EBNA1BP2 (UniProt Q99848): the log2 fold change was inactive: 0.13.
The same measure for DNAJC24 (UniProt Q6P3W2): inactive: 0.038.
